Results reported in US8030341B2, “Dmt-derivative compounds and related compositions and methods of use” (priority 2005, dated 2011).
For some assays here: Part of at least one peptide drawing is inferred or uncertain, most often the ends. For some assays here: For at least one compound, name, drawing or mass did not settle the structure.

By UniProt entry, the sequences of proteins in these tests, tags left out. Where a name states a change or a piece, a line headed by the entry shows the natural chain unless it says otherwise.
UniProt P97266, whole entry, looked up: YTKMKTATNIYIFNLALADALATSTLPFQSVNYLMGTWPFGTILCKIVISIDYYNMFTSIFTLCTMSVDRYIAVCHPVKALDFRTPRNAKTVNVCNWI
UniProt P33535, whole entry: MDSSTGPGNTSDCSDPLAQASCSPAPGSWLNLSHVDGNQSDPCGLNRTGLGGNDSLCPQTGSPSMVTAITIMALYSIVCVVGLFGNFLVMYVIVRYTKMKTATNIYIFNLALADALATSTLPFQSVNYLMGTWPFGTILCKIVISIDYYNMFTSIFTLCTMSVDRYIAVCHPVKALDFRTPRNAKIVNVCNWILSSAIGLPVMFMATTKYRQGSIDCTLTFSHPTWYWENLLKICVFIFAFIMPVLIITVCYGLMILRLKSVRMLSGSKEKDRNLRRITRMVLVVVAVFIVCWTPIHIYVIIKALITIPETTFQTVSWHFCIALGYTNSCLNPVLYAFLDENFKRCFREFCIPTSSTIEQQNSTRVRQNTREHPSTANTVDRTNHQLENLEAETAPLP
UniProt P33533, whole entry: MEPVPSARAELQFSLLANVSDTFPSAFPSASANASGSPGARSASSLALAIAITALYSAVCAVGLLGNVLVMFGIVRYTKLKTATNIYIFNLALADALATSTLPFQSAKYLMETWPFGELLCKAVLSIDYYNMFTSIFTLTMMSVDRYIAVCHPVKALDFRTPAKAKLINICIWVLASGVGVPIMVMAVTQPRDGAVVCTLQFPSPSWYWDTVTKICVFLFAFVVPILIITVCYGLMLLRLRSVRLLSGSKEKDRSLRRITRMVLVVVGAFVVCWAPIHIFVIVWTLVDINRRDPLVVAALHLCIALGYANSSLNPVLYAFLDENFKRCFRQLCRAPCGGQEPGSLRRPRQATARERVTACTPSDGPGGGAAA
UniProt P32300, whole entry: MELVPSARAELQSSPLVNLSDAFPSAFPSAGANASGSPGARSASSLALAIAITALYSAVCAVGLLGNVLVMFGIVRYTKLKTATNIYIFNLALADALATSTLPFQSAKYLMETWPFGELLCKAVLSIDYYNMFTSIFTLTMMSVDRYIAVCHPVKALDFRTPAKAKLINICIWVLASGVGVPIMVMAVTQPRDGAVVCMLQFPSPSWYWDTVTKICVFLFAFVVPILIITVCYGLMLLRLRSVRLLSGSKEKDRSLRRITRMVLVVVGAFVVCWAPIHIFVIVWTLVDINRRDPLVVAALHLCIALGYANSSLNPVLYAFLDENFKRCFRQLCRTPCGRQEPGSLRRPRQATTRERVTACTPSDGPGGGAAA

Tests used:
μ-opioid receptor [1] = target: μ-opioid receptor (Cavia porcellus, UniProt P97266); experiment: guinea pig ileum (GPI) bioassay; format: cell-based; details: read-out: GPI; Table 4; agonism
Description: The myenteric plexus longitudinal muscle preparations (2-3 cm segments) from the small intestine of male Hartley strain guinea pigs (GP1) measured μ-opioid receptor agonism and a single mouse vas deferens (MVD) was used to determine δ-opioid receptor agonism as described in Sasaki et al. Bioorg. […] The isolated tissues were suspended in organ baths containing balanced salt solutions in a physiological buffer, pH 7.5. Agonists were tested for the inhibition of electrically evoked contraction and expressed as IC50 (nM) obtained from the dose-response curves.

μ-opioid receptor [2] = target: T1, μ-opioid receptor (Rattus norvegicus, UniProt P33535); experiment: opioid receptor binding competition assay, rat brain P2 synaptosomal membranes (μ); details: Table 3
T1 construct: from tissue; host or cells: rat brain P2 synaptosomal membranes (Sprague-Dawley)
Description: (§1) Synaptosomes were preincubated to remove endogenous opioids, washed in excess ice-cold buffer containing protease inhibitor and stored in a glycerol-containing buffer with protease inhibitor at −80° C. as described in Lazarus et al., J. Med. Chem. 34:1350-55 (1991). […] After incubation, the radiolabeled membranes were rapidly filtered on Whatman GF/C glass fiber filters presoaked in 0.1% polyethylenimine in order to optimize the signal-to-noise ratio, washed with ice-cold BSA buffer, and dried at 75-80° C. Radioactivity was determined using EcoLume (ICN, Costa Mesa, Calif.). All compounds were analyzed in duplicate using 5-8 peptide dosages and several synaptosomal preparations in independent repetitions to ensure statistical significance. The affinity constants (Ki) were calculated according to Cheng and Prusoff (Cheng et al., Biochem. Pharmacol., 22: 3099-3108 ([…])).

δ-opioid receptor [3] = target: T2, δ-opioid receptor (Rattus norvegicus, UniProt P33533); experiment: opioid receptor binding competition assay, rat brain P2 synaptosomal membranes (δ); details: read-out: Ki(δ); Table 3; versus [3H]DPDPE; rat brain synaptosomes
T2 construct: from tissue; host or cells: rat brain P2 synaptosomal membranes (Sprague-Dawley)
Description: as §1

δ-opioid receptor [4] = target: T3, δ-opioid receptor (Mus musculus, UniProt P32300); experiment: mouse vas deferens (MVD) bioassay; format: cell-based; details: Table 4
T3 construct: from tissue; host or cells: isolated mouse vas deferens
Description: Bioorg. Med. Chem., 11: 675-678 (2003). The isolated tissues were suspended in organ baths containing balanced salt solutions in a physiological buffer, pH 7.5. […]

opioid bioactivity = experiment: Tail Flick test, in vivo opioid antagonism; details: FIG. 2; versus time
morphine analgesia = experiment: HP (hot-plate) test, antagonism of morphine analgesia; format: in vivo; details: FIG. 3; versus time

Compound	IC50 (μ-opioid receptor [1])	Ki (μ-opioid receptor [2]; read-out: Ki(μ), versus [3H]DAMGO, rat brain synaptosomes)	Ki (δ-opioid receptor [3])	MVD pA2 (δ-opioid receptor [4]; δ antagonism)	IC50 (δ-opioid receptor [4]; read-out: MVD, agonism)	in vivo opioid antagonism, tail flick test (opioid bioactivity)	Ki(δ)/Ki(μ) (μ-opioid receptor [2]; selectivity ratio)	in vivo opioid antagonism of morphine analgesia, HP test (morphine analgesia)
C=CCN(CC=C)[C@@H](Cc1c(C)cc(O)cc1C)C(=O)N1CCC[C@H]1C(=O)N[C@@H](Cc1ccccc1)C(=O)N[C@@H](Cc1ccccc1)C(N)=O [Compound 30, [N,N-(allyl)2Dmt^1]EM-2]	> 10000 nM	13.1 ± 1.3 nM	1420 ± 50 nM	6.13	> 10000 nM			
C=CCN[C@@H](Cc1c(C)cc(O)cc1C)C(=O)N1CCC[C@H]1C(=O)N[C@@H](Cc1ccccc1)C(=O)N[C@@H](Cc1ccccc1)C(N)=O [Compound 31, [(N-allyl)Dmt^1]EM-2]						antagonizes the effect of opioid bioactivity	1244	antagonizes the effect of opioid bioactivity
